# Data as given in PubChem BioAssay AID1347131 (National Center for Advancing Translational Sciences (NCATS), 2019).
# Screen size: about 410,000 compounds; about 2,000 (0.49%) were called active. This list was built around the results that the source calls inconclusive (neither active nor inactive); the mix of calls is not that of the screen. Calls follow the shape of the full dose curve; tested in HEK293 reporter line. Potencies of inconclusive entries are doubtful fits and often do not repeat.
# Experiment: qHTS Assay for Foot and Mouth Disease Virus Antivirals: Primary Screen against the MLPCN compound library; also: nearly all actives have a fitted effect of over 55% in size
# Details: FMDV antiviral cell-based qHTS; activity, negative = inhibition: at 57.9 µM (top of the series)
# Potency is read from the fitted curve at half-maximal effect.
Compound,Potency,"activity, negative = inhibition"
COc1cc(-c2nc3ccccn3c2NCc2ccccc2)ccc1SC1CCCCC1,"inconclusive: 22.4 µM [inhibitor, partial curve, poor fit]",
CCN(CC)P(=S)(c1c(C)nc2ccccn12)c1c(C)nc2ccccn12,,inconclusive: -39.8% [inhibitor]
COc1ccc(NC(=O)c2oc3ccc(S(=O)(=O)N4CCC5(CC4)OCCO5)cc3c2C)cc1,"inconclusive: 12.6 µM [inhibitor, partial curve, poor fit]",
CCN1/C(=C/c2cc[n+](C)cc2)C=Cc2cc(C)ccc21,"inconclusive: 5.01 µM [inhibitor, partial curve, poor fit]",
CCOC(=O)C1=NN(c2ccccc2)C(=O)/C1=C\c1ccc(N(C)C)cc1,"inconclusive: 17.8 µM [inhibitor, partial curve, poor fit]",
O=C1C=C(N2CCCCC2)c2ccccc2C1=O,"inconclusive: 22.4 µM [inhibitor, partial curve, poor fit]",
CCOC(=O)c1cc(-c2ccc(C)cc2)n(CCC(=O)Nc2nc3c(C)cccc3s2)c1C,"inconclusive: 14.1 µM [inhibitor, partial curve]",
Cc1ccc(C)c(C(=O)Cn2ncc(Cl)c(Cl)c2=O)c1,"inconclusive: 31.6 µM [inhibitor, single point]",
CC(=O)c1c(C)[nH]c(C(=O)OCCCCN2C(=O)c3ccccc3C2=O)c1C,"inconclusive: 12.6 µM [inhibitor, partial curve, poor fit]",
O=C(Nc1ccc2nc(SCCOc3ccccc3)sc2c1)c1cccs1,,inactive: -40.5%
CCc1nnc(NC(=O)CSc2nnc(CNc3ccc(Cl)cc3)o2)s1,"inconclusive: 28.2 µM [inhibitor, single point]",
CC(=O)NC(=S)Nc1ccc(S(=O)(=O)N(C)Cc2ccccc2)cc1,"inconclusive: 22.4 µM [inhibitor, partial curve, poor fit]",
CC1CCc2noc(NC(=O)c3ccccc3[N+](=O)[O-])c2C1 (centres undefined),"inconclusive: 1.26 µM [inhibitor, full curve]",
COC(=O)c1cc(NC(=O)C2COc3ccccc3O2)cc(C(=O)OC)c1 (centres undefined),"inconclusive: 14.1 µM [inhibitor, partial curve]",
CCCCCCOC(=O)Cc1c(C)nc(-c2ccccc2)[nH]c1=O,"inconclusive: 10 µM [inhibitor, partial curve, poor fit]",
Cn1c(=O)oc2cc(S(=O)(=O)NCCN3CCc4ccccc4C3)ccc21,"inconclusive: 5.62 µM [inhibitor, partial curve, poor fit]",
CCCCCc1c(-c2ccccc2OC)ncn1CCc1ccccc1OC,"inconclusive: 25.1 µM [inhibitor, partial curve, poor fit]",
NC1=NC(c2ccccc2Cl)n2c(nc3ccccc32)N1 (centres undefined),"inconclusive: 15.8 µM [inhibitor, partial curve, poor fit]",
Cc1ccc(C)c(N2CCN(C(=O)Nc3ccc4c(c3)N(C)C(=O)CS4)CC2)c1,"inconclusive: 15.8 µM [inhibitor, partial curve, poor fit]",
CC(C)(C)NC(=O)CSc1nc2ccc(NC(=O)CSc3nnc(N)s3)cc2s1,"inconclusive: 28.2 µM [inhibitor, partial curve, poor fit]",

# Another view of 3 compounds above:
Compound | Potency | activity, negative = inhibition
CC(=O)c1c(C)[nH]c(C(=O)OCCCCN2C(=O)c3ccccc3C2=O)c1C | inconclusive: 12.6 µM [inhibitor, partial curve, poor fit] | 
O=C(Nc1ccc2nc(SCCOc3ccccc3)sc2c1)c1cccs1 |  | inactive: -40.5%
CCc1nnc(NC(=O)CSc2nnc(CNc3ccc(Cl)cc3)o2)s1 | inconclusive: 28.2 µM [inhibitor, single point] | 

# Additional structures follow.

Compound,Potency,"activity, negative = inhibition"
CC1Cc2ccccc2N1C(=O)CSc1nnc2c(n1)[nH]c1ccccc12 (centres undefined),"inconclusive: 14.1 µM [inhibitor, partial curve, poor fit]",
CC(C)C(=O)N1CCN(c2nc(-c3ccccc3)c3c(c2C#N)CCCC3)CC1,active: 22.4 µM,
COc1ccc(CN2CCC(N3CC(C)OC(C)C3)CC2)c(OC)c1OC (centres undefined),"inconclusive: 5.01 µM [inhibitor, partial curve, poor fit]",
CN1CCN(CCC(=O)N2c3ccccc3Sc3ccc(Cl)cc32)CC1,"inconclusive: 20 µM [inhibitor, single point]",
COc1cccc(-n2c(=O)c3c(C)c(C(=O)N(C)C)sc3n(Cc3ccc(F)cc3Cl)c2=O)c1,,inactive: -30%
CCCCn1nc2cc(C(=O)NCC34CC5CC(CC(C5)C3)C4)ccc2c1OC,,inactive: -35.6%
Cc1ccc(Cl)cc1N1CCN(C(=O)C2CCN(S(=O)(=O)c3c(C)nn(C)c3C)CC2)CC1,"inconclusive: 31.6 µM [inhibitor, partial curve, poor fit]",
N#Cc1ccc(Oc2nc(C#N)cc(-c3ccccc3)n2)cc1,"inconclusive: 11.2 µM [inhibitor, partial curve, poor fit]",
Cc1ccccc1OCc1nnc(SCC(=O)Nc2ccc3nc(SCC(=O)NC(C)(C)C)sc3c2)n1C,"inconclusive: 35.5 µM [inhibitor, partial curve, poor fit]",
Cc1ccc(-n2ncc3c(N4CCCCCC4)ncnc32)cc1,,inactive: -98.4%
COc1cc(NC(=O)Cc2ccc(S(=O)(=O)N3CCOCC3)s2)c(OC)cc1Cl,,inactive: -38.1%
CCc1ccc(N2C(=O)NC(=O)/C(=C\C=C\c3ccco3)C2=O)cc1,"inconclusive: 25.1 µM [inhibitor, partial curve, poor fit]",
Cc1cc(-c2n[nH]c(=S)n2/N=C/C(Br)=C/c2ccccc2)n[nH]1,"inconclusive: 35.5 µM [inhibitor, single point]",
CCSc1nc2c(c(=O)[nH]c(=O)n2C)n1CC(O)COc1ccccc1C (centres undefined),"inconclusive: 20 µM [inhibitor, partial curve, poor fit]",
COc1ccc(CC(=O)Nc2cccc(-c3csc(C)n3)c2)cc1,active: 20 µM,
Clc1ccc2nc(CSc3ccccc3)cn2c1,"inconclusive: 31.6 µM [inhibitor, single point]",
Cc1ccccc1CN(C)C(C)C(=O)Nc1ccccc1F (centres undefined),,inconclusive: -37% [inhibitor]
COc1ccc(C(=O)c2cn[nH]c2-c2cc(Cl)ccc2O)cc1,"inconclusive: 28.2 µM [inhibitor, single point]",
O=C1c2ccccc2C(=O)C12OC2c1ccc(Cl)cc1Cl (centres undefined),"inconclusive: 28.2 µM [inhibitor, partial curve, poor fit]",
